Source: PMC11077360
No constants are given. Whether binding was seen depends on the method and setting. In cells and extracts the contact can be indirect. Sequences can lack the tags named with a protein.

Amino acid sequences for entries named in this document (tags omitted).
UniProt Q15388: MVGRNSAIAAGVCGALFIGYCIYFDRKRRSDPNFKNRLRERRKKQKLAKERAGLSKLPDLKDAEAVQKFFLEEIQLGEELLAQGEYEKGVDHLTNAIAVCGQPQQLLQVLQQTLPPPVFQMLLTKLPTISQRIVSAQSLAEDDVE

Biological target: T1, FLAG-tagged MTUS1/ATIP1 (human) (UniProt Q9ULD2)
T1 sequence: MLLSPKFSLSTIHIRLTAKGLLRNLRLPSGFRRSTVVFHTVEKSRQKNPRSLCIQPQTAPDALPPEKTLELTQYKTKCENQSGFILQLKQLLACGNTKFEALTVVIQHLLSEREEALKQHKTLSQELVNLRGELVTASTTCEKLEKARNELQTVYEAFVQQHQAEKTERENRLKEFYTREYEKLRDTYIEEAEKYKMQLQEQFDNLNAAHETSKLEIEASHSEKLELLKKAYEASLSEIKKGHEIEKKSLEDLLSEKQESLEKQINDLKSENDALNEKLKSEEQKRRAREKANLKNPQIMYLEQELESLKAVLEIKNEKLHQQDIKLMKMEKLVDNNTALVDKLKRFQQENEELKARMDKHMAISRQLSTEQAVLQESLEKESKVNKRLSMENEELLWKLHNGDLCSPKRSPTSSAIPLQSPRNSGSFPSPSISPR
Assay: co-IP; lysates (IP buffer) of HNSCC cells transduced with lentivirus containing ATIP1-Flag; immunoprecipitation with an antibody against Flag or control IgG, Dynabeads Coimmunoprecipitation Kit; western blotting for MFN2 or TOMM20

binding: no binding
Substance: TOMM20 (from UniProt Q15388 1-145)
